Literature values as cited in patent US20050266077A1, “Resorbable matrices with coatings for delivery of bioactive compounds” (Royal Biomedical, Inc., priority 2002, published 2005).
At least one structure is not confirmed: it was looked up by name or label, or the drawing left a doubt.

Settings: exothermic reaction, matrix temperatures as high as 100° C

## CN(C)[C@@H]1C(O)=C(C(N)=O)C(=O)[C@@]2(O)C(O)=C3C(=O)c4c(O)cccc4[C@@](C)(O)[C@H]3C[C@@H]12 [tetracycline]
  inactivation of antibiotic: inactivated
